No constants are given. Whether binding was seen depends on the method and setting. Binding seen in cells or lysates may run through a third protein. Some binding calls cover weakened binding; strength is not graded here.

The chains behind the UniProt entries cited, without tags or fusion partners. Residues count along the entry.
UniProt O75460, residues 19-977: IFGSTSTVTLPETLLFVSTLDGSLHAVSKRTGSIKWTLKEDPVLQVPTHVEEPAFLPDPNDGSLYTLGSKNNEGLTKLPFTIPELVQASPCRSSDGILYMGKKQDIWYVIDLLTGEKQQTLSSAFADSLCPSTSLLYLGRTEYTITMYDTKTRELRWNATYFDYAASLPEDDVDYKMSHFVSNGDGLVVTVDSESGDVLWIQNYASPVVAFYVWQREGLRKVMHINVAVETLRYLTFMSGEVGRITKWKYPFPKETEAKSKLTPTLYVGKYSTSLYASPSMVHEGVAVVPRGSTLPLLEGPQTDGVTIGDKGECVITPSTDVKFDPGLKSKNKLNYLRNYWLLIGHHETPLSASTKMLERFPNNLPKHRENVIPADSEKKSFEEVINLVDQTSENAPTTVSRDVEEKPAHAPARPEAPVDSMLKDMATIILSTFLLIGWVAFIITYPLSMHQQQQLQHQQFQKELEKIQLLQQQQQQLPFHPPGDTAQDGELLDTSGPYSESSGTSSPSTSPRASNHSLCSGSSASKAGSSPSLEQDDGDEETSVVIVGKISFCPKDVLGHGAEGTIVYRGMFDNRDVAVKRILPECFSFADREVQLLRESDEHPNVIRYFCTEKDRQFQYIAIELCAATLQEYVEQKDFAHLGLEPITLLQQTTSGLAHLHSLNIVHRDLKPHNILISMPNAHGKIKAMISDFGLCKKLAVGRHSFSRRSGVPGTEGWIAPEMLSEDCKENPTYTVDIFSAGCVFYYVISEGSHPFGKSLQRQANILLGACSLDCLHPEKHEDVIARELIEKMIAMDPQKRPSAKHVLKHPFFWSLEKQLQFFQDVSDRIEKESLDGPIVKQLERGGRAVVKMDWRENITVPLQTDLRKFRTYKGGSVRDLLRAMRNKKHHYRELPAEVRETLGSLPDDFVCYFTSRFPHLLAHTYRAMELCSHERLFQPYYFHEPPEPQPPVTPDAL

Binding data for one molecule are collected here from PMC12222710.

The assay deals with inositol-requiring enzyme-1 alpha (IRE1α) (UniProt O75460). The assay is described as follows: co-IP; immunoprecipitation in 293 T cells; IgG as negative control; which protein was precipitated is not told.

B1: mesencephalic astrocyte-derived neurotrophic factor (MANF) (protein, UniProt P55145 25-182)
chain: LRPGDCEVCISYLGRFYQDLKDRDVTFSPATIENELIKFCREARGKENRLCYYIGATDDAATKIINEVSKPLAHHIPVEKICEKLKKKDSQICELKYDKQIDLSTVDLKKLRVKELKKILDDWGETCKGCAEKSDYIRKINELMPKYAPKAASARTDL
Regarding B1, the binding result is reported as “binds”.
